Experimental findings from article PMC10050154, “Coenzyme A binding sites induce proximal acylation across protein families” (Scientific Reports, 2023) are described below.

The assay addresses T1, enoyl-CoA hydratase short chain 1 (ECHS1) (human), P30084.
T1 chain: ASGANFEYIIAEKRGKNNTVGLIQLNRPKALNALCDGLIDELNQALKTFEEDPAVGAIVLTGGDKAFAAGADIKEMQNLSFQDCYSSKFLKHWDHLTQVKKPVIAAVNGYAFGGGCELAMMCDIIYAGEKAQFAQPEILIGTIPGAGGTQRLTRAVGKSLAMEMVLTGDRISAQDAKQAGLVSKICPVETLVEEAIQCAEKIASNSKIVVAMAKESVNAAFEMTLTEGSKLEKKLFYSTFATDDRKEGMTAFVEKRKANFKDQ
Kind of assay: native gel or EMSA; native gel electrophoresis of purified recombinant ECHS1, detected by Western blot; both purified. Conditions: remark: other sources report otherwise. Background: Mobility shift assays separate free from complexed probe on a gel.

No constants are given. Whether binding was seen depends on the method and setting. Some entries that bind do so weakly or less than the wild type.

B1: enoyl-CoA hydratase short chain 1 (ECHS1), P30084 28-290 (enzyme)
chain: ASGANFEYIIAEKRGKNNTVGLIQLNRPKALNALCDGLIDELNQALKTFEEDPAVGAIVLTGGDKAFAAGADIKEMQNLSFQDCYSSKFLKHWDHLTQVKKPVIAAVNGYAFGGGCELAMMCDIIYAGEKAQFAQPEILIGTIPGAGGTQRLTRAVGKSLAMEMVLTGDRISAQDAKQAGLVSKICPVETLVEEAIQCAEKIASNSKIVVAMAKESVNAAFEMTLTEGSKLEKKLFYSTFATDDRKEGMTAFVEKRKANFKDQ
As for B1, the binding result is reported as “binds”.
